# Measurements as given in PubChem BioAssay AID1381 (University of Pittsburgh Molecular Library Screening Center, 2008).
# Some of the results follow.
# Assay: inhibitors of GR-EGFP nuclear translocation, primary screen, dynein cargo transport inhibitor project, imaging, high-content, 3617.4 mouse cells (AID 1381)
# Conditions: stimulated with dexamethasone, 1 µM
# [1] = measured here: cell count per field, at 20 µM
# [2] = measured here: cytoplasmic GR-EGFP intensity, at 20 µM, stronger effect = higher value
# [3] = measured here: nuclear GR-EGFP intensity, at 20 µM, stronger effect = lower value
# [4] = measured here: cell count per field, at 50 µM
# [5] = measured here: cytoplasmic GR-EGFP intensity, at 50 µM, stronger effect = higher value
# [6] = measured here: nuclear GR-EGFP intensity, at 50 µM, stronger effect = lower value
Structure (SMILES),z-score [1],z-score [2],z-score [3],z-score [4],z-score [5],z-score [6]
Cc1ccc(NP(C)(=O)Oc2ccccc2)c(C)c1 (stereo not given),0.798,-0.29,0.287,,,
CC(C)c1ccc(OP(=O)(Nc2ccccn2)Oc2ccccc2F)cc1 (stereo not given),1.11,-0.291,-0.254,,,
CCN(CC)C(=S)SC(NC=O)C(Cl)(Cl)Cl (stereo not given),1.1,-0.14,-0.519,,,
CC(C)NC(=O)NP(=O)(Oc1ccccc1)Oc1ccccc1,0.377,-0.359,0.049,,,
COc1ccccc1OP(C)(=O)Nc1cc(Cl)ccc1C (stereo not given),0.0175,-0.213,0.269,,,
O=[N+]([O-])c1cc([N+](=O)[O-])c(-c2ccn[nH]2)s1,-0.428,0.599,-0.683,,,
COc1ccc(OP(C)(=O)Nc2cccc(F)c2)cc1 (stereo not given),0.433,-0.392,-0.215,,,
Cc1cc(C)cc(OP(C)(N)=O)c1 (stereo not given),-0.791,-0.0694,0.925,,,
O=[As](O)(c1ccc(O)cc1)c1ccccc1O,0.129,-0.29,0.143,,,
C[As](=O)(O)c1cccc(C(=O)O)c1,-0.652,-0.228,0.654,,,
CC(C)(C)c1ccc(OP(C)(=O)Nc2ccc(SC(F)(F)F)cc2)cc1 (stereo not given),1.13,-0.313,-0.905,,,
Cc1ccc(OP(=O)(Nc2ccc([N+](=O)[O-])cn2)Oc2ccc(C)cc2)cc1,0.407,-0.127,-0.164,,,
Cc1cccc(C)c1OP(C)(N)=O (stereo not given),-1.54,0.358,1.16,,,
Cc1ccc2nc3c(c(C)c2c1)CC(C(Cl)Cl)S3 (stereo not given),-1.43,-0.207,0.791,,,
O=[N+]([O-])c1ccc2c(c1)C=Nc1ccccc1O2,0.198,-0.161,-0.163,,,
COc1ccc(N/C(=N/P(=O)(N2CCOCC2)N2CCOCC2)N2CCOCC2)cc1,0.337,-0.136,0.249,,,
Cc1c2c(nc3ccccc13)SC(C(Cl)Cl)C2 (stereo not given),2.13,-0.262,-0.739,,,
O=C(OC1CN2CCC1CC2)C12CC3CC(CC(C3)C1)C2 (stereo not given),-0.26,0.228,0.0443,,,
Cc1cc(=O)[nH]c(N[N+](=O)[O-])n1,0.0689,-0.199,0.141,,,
CCN(CC)CCCOC(=O)C(O)(c1ccccc1)c1ccccc1,1.19,-0.352,-0.647,,,
COc1ccc2nc(NP(=O)(c3ccccc3)c3ccccc3)sc2c1,0.675,-0.213,-0.503,,,
COc1cc(I)ccc1[As](=O)(O)O,-0.329,-0.231,0.0241,,,
CCOP(C)(=S)SCC(=O)NC(C)C(=O)O (stereo not given),-0.281,-0.101,0.697,,,

Structure (SMILES),z-score [1],z-score [2],z-score [3],z-score [4],z-score [5],z-score [6]
CCOC(=O)c1ccc(NP(C)(=O)Oc2ccc(OC)cc2)cc1 (stereo not given),0.0169,-0.244,0.0592,,,
CCOC(=O)c1ccc(NC(=O)C(C)(CCl)SC)cc1 (stereo not given),0.488,-0.246,0.182,,,
CCC(C)N(CC(C)C)C(=S)SC(NC(C)=O)C(Cl)(Cl)Cl (stereo not given),,,,0.391,-0.244,-0.0895
CP(=O)(Nc1ccccn1)Oc1ccc(Cl)cc1 (stereo not given),,,,0.693,-0.291,0.443
CP(=O)(Nc1ccc(SC(F)(F)F)cc1)Oc1ccc(Cl)cc1 (stereo not given),-2.36,-0.0829,0.834,,,
Cc1cccc(C)c1OP(C)(=O)Nc1ccc(SC(F)(F)F)cc1 (stereo not given),-1.65,-0.152,0.912,,,
COP1(=S)c2c(C)nn(CCC#N)c2N=C(c2ccc(F)cc2)N1C (stereo not given),,,,-1.23,-0.0856,0.727
CP(=O)(Oc1ccccc1)OC(c1ccccc1)C(F)(F)F (stereo not given),-0.712,-0.301,0.743,,,
CCc1ccc(OP(C)(=O)N2CCN(c3ccc([N+](=O)[O-])cc3)CC2)cc1 (stereo not given),1.3,-0.247,-0.158,,,
CP(=O)(NC(=O)Nc1ccccc1)Oc1ccccc1 (stereo not given),0.557,-0.29,-0.536,,,
O=C(COc1ccccc1)OC1CN2CCC1CC2 (stereo not given),2.95,-0.35,-0.222,,,
Cc1cc(C)cc(OP(C)(=O)Nc2ccc(SC(F)(F)F)cc2)c1 (stereo not given),-3.02,-0.0341,1.91,,,
CP(=S)(Nn1cnnc1)Oc1ccccc1 (stereo not given),,,,-0.738,-0.22,-0.27
CCOC(=O)Nc1cccc([As](=O)(O)O)c1,-0.436,-0.201,0.307,,,
Cc1cc(SC(NC=O)C(Cl)(Cl)Cl)ncn1 (stereo not given),0.852,-0.328,0.283,,,
O=P(Nc1ccccn1)(c1cccc2ccccc12)c1cccc2ccccc12,-2.05,-0.314,1.74,,,
COc1ccccc1OP(C)(=O)Nc1ccccc1 (stereo not given),-0.0872,-0.0256,0.249,,,
CP(=O)(Nc1ccccc1Br)Oc1ccccc1 (stereo not given),-0.189,-0.304,-0.0636,,,
O=[N+]([O-])c1ccc(Nc2ccc(Oc3ccc([N+](=O)[O-])cc3[N+](=O)[O-])cc2)c([N+](=O)[O-])c1,1.25,-0.0393,-1.08,,,
CCOC(=O)Nc1ccc([As](=O)(O)O)c(O)c1,0.479,-0.297,0.0597,,,
Cc1cc(SC(NC(=O)c2ccccc2)C(Cl)(Cl)Cl)nc(C(C)C)n1 (stereo not given),0.28,-0.022,-0.609,,,
O=[N+]([O-])c1ncn(CCn2ncnc2[N+](=O)[O-])n1,0.838,-0.247,-0.291,,,
CC(C)(C)C(=O)NC(Sc1ccncn1)C(Cl)(Cl)Cl (stereo not given),1.44,0.159,-0.13,,,

Structure (SMILES),z-score [1],z-score [2],z-score [3],z-score [4],z-score [5],z-score [6]
O=C(O)CNc1ccc([As](=O)(O)O)cc1,0.0302,-0.177,-0.443,,,
O=[N+]([O-])c1cccc(NC2=NCC(CBr)S2)c1 (stereo not given),0.371,0.131,0.336,,,
CP(=O)(OC12CC3CC(CC(C3)C1)C2)OC12CC3CC(CC(C3)C1)C2,-0.781,-0.118,0.311,,,
CCOC(=O)c1ccc(NP(C)(=O)Oc2ccc(Cl)cc2)cc1 (stereo not given),-0.0124,-0.275,-0.538,,,
O=C(Nc1cc([As](=O)(O)O)ccc1O)c1ccccc1,0.398,-0.146,-0.589,,,
CCN(/C(=N/P(=O)(N1CCOCC1)N1CCOCC1)N1CCOCC1)c1ccc(OC)cc1,-0.642,-0.189,0.664,,,
CP(=O)(Nc1ccc(Cl)cc1)Oc1ccc(F)cc1 (stereo not given),,,,1.2,-0.233,-1.3
Nc1ccc([As](=O)(O)c2ccc(N)cc2)cc1,-0.759,-0.247,0.372,,,
CC(C)(C)c1ccc(OP(C)(=O)O)cc1,,,,-0.251,-0.277,0.0172
COc1ccccc1OP(C)(=O)Nc1ccccc1Br (stereo not given),0.302,-0.214,0.132,,,
C[N+]1=C2C=CC=CC=C2SC12C([N+](=O)[O-])=CC([N+](=O)[O-])=C[C-]2[N+](=O)[O-] (stereo not given),1.95,-0.198,-0.464,,,
CC1CCN(C(=O)Oc2c(Cl)cc(Cl)c3cccnc23)CC1,,,,-0.295,-0.26,-0.868
CC(C)=N/N=C(\N)N[N+](=O)[O-],0.242,-0.316,-0.109,,,
CN(C)C(=O)c1c([N+](=O)[O-])cc([N+](=O)[O-])cc1[N+](=O)[O-],0.303,0.8,-0.663,,,
CN(C)C(=O)OCCc1n(C)cc[n+]1C,0.319,-0.311,-0.496,,,
CCN(CC)CC(O)COC(=O)C(O)(c1ccccc1)C1CCCCC1 (stereo not given),-0.383,-0.233,0.157,,,
COc1ccc(C2=NCC(CBr)S2)cc1 (stereo not given),-0.129,-0.241,0.329,,,
COc1ccc(OP(C)(=O)Nc2ccc(Br)cc2)cc1 (stereo not given),-1.95,-0.107,0.585,,,
Cc1ccc(NP(=O)(Oc2ccccc2)Oc2ccccc2)nc1,1.35,-0.37,-0.299,,,
CP(=O)(Oc1ccccc1)N1CCOC1=O (stereo not given),1.23,-0.226,-0.45,,,
O=[N+]([O-])c1cc([N+](=O)[O-])c(CCNc2ccccc2)c([N+](=O)[O-])c1,-0.0498,-0.0466,0.181,,,
CCc1nc2c(n1)c1c(non1O)c1c2no[n+]1[O-],0.289,1.74,-1.09,,,
CCc1ccc(OP(C)(=O)Nc2cccnc2)cc1 (stereo not given),0.0995,-0.317,0.227,,,

Structure (SMILES),z-score [1],z-score [2],z-score [3],z-score [4],z-score [5],z-score [6]
COc1ccccc1OP(C)(=O)Nc1c(C)n(C)n(-c2ccccc2)c1=O (stereo not given),1.61,-0.55,-0.615,,,
CC(=O)N1C2C3N(C(C)=O)C1C1N(C(C)=O)C(C(N1C(C)=O)N3C(C)=O)N2C(C)=O,0.727,-0.226,-0.56,,,
O=[N+]([O-])c1cccc2n[nH]nc12,,,,-1.1,-0.114,0.362
O=C(OCCCN1CCCC1)C(O)(c1ccccc1)C1CCCCC1 (stereo not given),0.416,-0.145,0.0393,,,
Oc1ccccc1CNc1ccccn1,0.533,-0.18,0.00642,,,
Cc1c2non([O-])c-2c(C)[n+](=O)[n+]1[O-],-3.42,3.61,-0.963,,,
O=C(NC(Sc1ccncn1)C(Cl)(Cl)Cl)c1ccccc1 (stereo not given),-0.971,-0.238,-0.0532,,,
O=[N+]([O-])c1cc([N+](=O)[O-])c(Nc2ccccn2)c([N+](=O)[O-])c1,0.791,-0.0412,-0.469,,,
CC(C)CC(=O)NC(Sc1ccc(Cl)cc1)C(Cl)(Cl)Cl (stereo not given),0.472,0.201,-0.614,,,
Nc1cc(N)c2nonc2c1[N+](=O)[O-],-1.05,0.288,0.751,,,
Cc1c(NP(C)(=O)Oc2ccc(C(C)C)cc2)c(=O)n(-c2ccccc2)n1C (stereo not given),,,,-0.854,-0.163,0.499
CCc1ccc(OP(C)(=O)O)cc1,,,,0.359,-0.247,-0.9
CP(=O)(Nc1ccccn1)Oc1ccccc1 (stereo not given),,,,-0.527,-0.161,0.793
COc1ccccc1OP(C)(=O)Nc1ccc(C)cc1C (stereo not given),-0.611,-0.138,1.32,,,
COc1ccccc1OP(C)(=O)Nc1ccc(Br)cc1 (stereo not given),0.892,-0.224,-0.0444,,,
Cc1ccc(N/C(=N/P(=O)(N2CCOCC2)N2CCOCC2)N2CCOCC2)cc1,-1.2,-0.0132,-0.207,,,
NC(=O)c1cc([N+](=O)[O-])cc([N+](=O)[O-])c1N,0.639,-0.301,-0.389,,,
CN(C)CCOC(=O)C(O)(c1ccccc1)C1CCCC1 (stereo not given),,,,1.12,-0.186,0.255
Clc1ccc(Cl)c(NC2=NCC(CBr)S2)c1 (stereo not given),0.19,-0.29,0.204,,,
CN1CCCC(OC(=O)C(c2ccccc2)c2ccccc2)C1 (stereo not given),,,,-0.0971,-0.216,0.222
COc1ccc(OP(C)(=O)Nc2ccccn2)cc1 (stereo not given),-0.348,-0.307,0.156,,,
